{"source": "the supplement of paper PMC12542422", "note": "Where a name gives a salt, the structure may show the parent alone. ± gives the standard deviation of the averaged measurements. This is one part of the list. Values are raw readings; no control value is given beside them.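 HeLa cells imaged for ribosome-assembly readouts (ENP1 staining with or without export block, or inducible tagged ribosomal protein reporters); machine learning classified each cell's signal location against solvent (DMSO) controls. Hits exceeded the DMSO false-positive mean by five standard deviations, then were visually confirmed; three biological replicates.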"}
{"system": "HeLa K (ENP1 immunofluorescence, no LMB)", "assay": "fraction of cells with nucleolar or nucleolar/nucleoplasmic ENP1 signal (MainHitrate); higher = more cells with nucleolar/nuclear readout signal (for ENP1 -LMB: less RNAPI inhibition; for +LMB ENP1 and RP reporters: stronger nuclear/nucleolar retention, i.e. ribosome biogenesis defect)", "conditions": "concentration: 1 µM; treatment time: 6 h; ENP1 -LMB; leptomycin B: none"}
{"smiles": "CC(C)c1nc(CN(C)C(=O)N[C@@H](CCN2CCOCC2)C(=O)N[C@H](CC[C@H](Cc2ccccc2)NC(=O)OCc2cncs2)Cc2ccccc2)cs1", "note": "[Cobicistat (GS-9350)]", "fraction": "0.974 ± 0.044"}
{"smiles": "CN(C)[C@@H]1C(O)=C(C(N)=O)C(=O)[C@@]2(O)C(O)=C3C(=O)c4c(O)cccc4[C@@](C)(O)[C@H]3[C@H](O)[C@@H]12", "note": "[Oxytetracycline (Terramycin)]", "fraction": "0.9994 ± 0.001"}
{"smiles": "CC1(C)S[C@@H]2[C@H](NC(=O)[C@H](NC(=O)N3CCN(S(C)(=O)=O)C3=O)c3ccccc3)C(=O)N2[C@H]1C(=O)O", "note": "[Mezlocillin Sodium]", "fraction": "0.9951 ± 0.0085"}
{"smiles": "COc1cc(NC(C)CCCN)c2ncccc2c1", "note": "(stereo not given) [Primaquine Diphosphate]", "fraction": "0.991 ± 0.016"}
{"smiles": "Cc1cc(C2CCCCC2)n(O)c(=O)c1", "note": "[Ciclopirox (Penlac)]", "fraction": "0.994 ± 0.011"}
{"smiles": "C[N+](C)(C)CCOC(N)=O", "note": "[Carbachol]", "fraction": "0.9978 ± 0.0038"}
{"smiles": "N[C@H](Cc1ccccc1)C(=O)O", "note": "[D-Phenylalanine]", "fraction": "0.9982 ± 0.0032"}
{"smiles": "O=C(O)Cc1ccccc1Nc1c(Cl)cccc1Cl", "note": "[Diclofenac Potassium]", "fraction": "0.983 ± 0.03"}
{"smiles": "Nc1ccc(S(=O)(=O)Nc2ccccn2)cc1", "note": "[Sulfapyridine (Dagenan)]", "fraction": "0.9972 ± 0.0049"}
{"smiles": "Cc1cccc(C)c1NC(=O)C1CCCCN1C", "note": "(stereo not given) [Mepivacaine HCl]", "fraction": "0.989 ± 0.019"}
{"smiles": "CCCC(=O)[O-].[Na+]", "note": "[Sodium butyrate]", "fraction": "0.9949 ± 0.0089"}
{"smiles": "CC1(C)O[C@@H]2C[C@H]3[C@@H]4C[C@H](F)C5=CC(=O)C=C[C@]5(C)[C@@]4(F)[C@@H](O)C[C@]3(C)[C@]2(C(=O)CO)O1", "note": "[Fluocinolone acetonide (Flucort-N)]", "fraction": "0.996 ± 0.007"}
{"smiles": "COc1cc(C(=O)NC2CCCNC2)cc(OC)c1OC", "note": "(stereo not given) [Troxipide]", "fraction": "0.993 ± 0.012"}
{"smiles": "COc1ccccc1OCC(O)CN1CCN(CC(=O)Nc2c(C)cccc2C)CC1", "note": "(stereo not given) [Ranolazine (Ranexa)]", "fraction": "0.994 ± 0.011"}
{"smiles": "O=C(O)c1cn(-c2ccc(F)cc2)c2cc(N3CCNCC3)c(F)cc2c1=O", "note": "[Sarafloxacin HCl]", "fraction": "0.99 ± 0.017"}
{"smiles": "Cc1cnc(NC(=O)C2=C(O)c3ccccc3S(=O)(=O)N2C)s1", "note": "[Meloxicam (Mobic)]", "fraction": "0.9986 ± 0.0024"}
{"smiles": "CNCC(O)c1ccc(O)c(O)c1", "note": "(racemic) [DL-Adrenaline]", "fraction": "0.99 ± 0.017"}
{"smiles": "Cc1cc2c(cc1S(N)(=O)=O)S(=O)(=O)CCC2", "note": "[Meticrane]", "fraction": "0.9956 ± 0.0076"}
{"smiles": "Clc1ccc2c(c1)C(N1CCNCC1)=Nc1ccccc1O2", "note": "[Amoxapine]", "fraction": "0.99 ± 0.017"}
{"smiles": "Cc1cn([C@H]2C=C[C@@H](CO)O2)c(=O)[nH]c1=O", "note": "[Stavudine]", "fraction": "0.998 ± 0.0034"}
{"smiles": "CC[C@H](C)C(=O)O[C@H]1C[C@@H](C)C=C2C=C[C@H](C)[C@H](CC[C@@H]3C[C@@H](O)CC(=O)O3)[C@H]21", "note": "[Lovastatin (Mevacor)]", "fraction": "0.99 ± 0.017"}
{"smiles": "CCCCc1ncc(/C=C(\\Cc2cccs2)C(=O)O)n1Cc1ccc(C(=O)O)cc1", "note": "[Eprosartan Mesylate]", "fraction": "0.985 ± 0.026"}
{"smiles": "N#CC1(c2ccc(NC(=O)c3cccnc3NCc3ccncc3)cc2)CCCC1", "note": "[Apatinib (YN968D1)]", "fraction": "0.993 ± 0.011"}
{"smiles": "CCN(CC)C(=S)SSC(=S)N(CC)CC", "note": "[Disulfiram (Antabuse)]", "fraction": "0.9984 ± 0.0028"}
{"smiles": "NC(=O)c1cccnc1", "note": "[Nicotinamide (Niacinamide)]", "fraction": "0.989 ± 0.019"}
{"smiles": "CC(=O)OCC(=O)[C@@]12N=C(C)O[C@@H]1C[C@H]1[C@@H]3CCC4=CC(=O)C=C[C@]4(C)[C@H]3[C@@H](O)C[C@@]12C", "note": "[Deflazacort (Calcort)]", "fraction": "0.978 ± 0.038"}
{"smiles": "CCCNC(C)C(=O)Nc1c(C)csc1C(=O)OC", "note": "(stereo not given) [Articaine HCl]", "fraction": "0.993 ± 0.012"}
{"smiles": "Clc1ccc(COC(Cn2ccnc2)c2ccc(Cl)cc2Cl)cc1", "note": "(stereo not given) [Econazole nitrate (Spectazole)]", "fraction": "0.993 ± 0.013"}
{"smiles": "CC(=O)Oc1ccccc1C(=O)Nc1ncc([N+](=O)[O-])s1", "note": "[Nitazoxanide (Alinia, Annita)]", "fraction": "0.9989 ± 0.002"}
{"smiles": "O=c1c(-c2ccc(O)cc2)coc2cc(O)ccc12", "note": "[Daidzein]", "fraction": "0.992 ± 0.014"}
{"smiles": "C=C1CC[C@H](O)C/C1=C/C=C1\\CCC[C@]2(C)[C@@H]([C@H](C)CCCC(C)(C)O)CC[C@@H]12", "note": "[Calcifediol]", "fraction": "0.9981 ± 0.0034"}
{"smiles": "CC(C)NCC(O)c1ccc(O)c(O)c1", "note": "(stereo not given) [Isoprenaline hydrochloride]", "fraction": "0.9952 ± 0.0083"}
{"smiles": "S=c1[nH]cnc2nc[nH]c12", "note": "[Mercaptopurine]", "fraction": "0.9982 ± 0.0031"}
{"smiles": "CCOc1cc(N)c(Cl)cc1C(=O)NCC1CN(Cc2ccc(F)cc2)CCO1", "note": "(stereo not given) [Mosapride citrate]", "fraction": "0.9989 ± 0.002"}
{"smiles": "CCc1c2c(nc3ccc(OC(=O)N4CCC(N5CCCCC5)CC4)cc13)-c1cc3c(c(=O)n1C2)COC(=O)[C@]3(O)CC", "note": "[Irinotecan HCl Trihydrate (Campto)]", "fraction": "0.985 ± 0.026"}
{"smiles": "CC#C[C@]1(O)CC[C@H]2[C@@H]3CCC4=CC(=O)CCC4=C3[C@@H](c3ccc(N(C)C)cc3)C[C@@]21C", "note": "[Mifepristone (Mifeprex)]", "fraction": "0.986 ± 0.025"}
{"smiles": "N=C(N)Nc1ccc(C(=O)Oc2ccc3cc(C(=N)N)ccc3c2)cc1", "note": "[Nafamostat mesylate]", "fraction": "0.9975 ± 0.0043"}
{"smiles": "C=CCNC(N)=S", "note": "[Allylthiourea]", "fraction": "0.984 ± 0.028"}
{"smiles": "C[C@@H]1C[C@H]2[C@@H]3CCC4=CC(=O)C=C[C@]4(C)[C@@]3(F)[C@@H](O)C[C@]2(C)[C@@]1(O)C(=O)CO", "note": "[Dexamethasone]", "fraction": "0.999 ± 0.0017"}
{"smiles": "CN1CCCCC1CCN1c2ccccc2Sc2ccc([S+](C)[O-])cc21", "note": "(stereo not given) [Mesoridazine Besylate]", "fraction": "0.9945 ± 0.0095"}
